Laboratory results reported in patent US8076315B2, “Pharmacological treatments for sleep disorders (apnoe) with prostanoid receptor antagonists” (The Board of Trustees of the University of Illinois, priority 2005, dated 2011).
At least one compound was matched to its structure with a doubt left.

Test system: spontaneous sleep apnea in the rat
Test: spontaneous sleep apnea model in the rat (plethysmography with EEG/EMG recording)
Type: in vivo
Settings: systemic injection 15 min before recording; Example 2, described as results that can be obtained
Experimental: Adult, male Sprague-Dawley rats (obtained from Sasco-King, Wilmington, Mass.; usually 8 per test group; average weight=300 g) are maintained on a 12-hour light (08:00-20:00 hour)/12-hour dark (20:00-08:00 hour) cycle for one week, housed in individual cages and given ad libitum access to food and water. Following the one week of acclimatization, animals are subjected to the following surgical procedures.
Acclimatized animals are anesthetized using a mixture of ketamine […] and xylazine (5 mg/kg) at a volume of 1 ml/kg body weight for the implantation of cortical electrodes for electroencephalogram (EEG) recording and neck muscle electrodes for electromyogram (EMG) recording. The surface of the skull is exposed surgically and cleaned with a 20% solution of hydrogen peroxide followed by a solution of 95% isopropyl alcohol. […]
After surgery, all animals are allowed to recover for one week before being recorded for sleep and breathing.
Physiological parameters (see below) from each animal prepared as set forth in Example 1 are recorded on 2 occasions in random order, with recordings for an individual animal separated by at least 3 days. […]
Respiration is recorded by placing each animal, unrestrained, inside a single chamber plethysmograph (PLYUN1R/U; Buxco Electronics, Sharon, Conn.; dimension 6 in. ×10 in.×6 in.) ventilated with a bias flow of fresh room air at a rate of 2 L/min. […]

## CC1=C(C)C(=O)C(C(CCCCCC(=O)O)c2ccccc2)=C(C)C1=O (stereo not shown) [seratrodast]
  efficacy against sleep apnea (rate of apneas per hour of NREM and REM sleep, 6 hours of polygraphic recording): dose-dependent efficacy
